Laboratory results from paper PMC7819943, “Rice protein-binding microarrays: a tool to detect cis-acting elements near promoter regions in rice”.
This is one part of the list.

Each sequence was assayed against T1, OsSMF1 (Oryza sativa, UniProt Q6ZLB0 1-436) (assay: protein-binding microarray (RPBM); PBS, 2% BSA, 51.3 ng/ul salmon testes DNA, 50 uM zinc acetate, 200 nM TF, 25 C, 1 h; high values mean tight binding). Conditions: protein: recombinant; tags: N-terminal polyhistidine and DsRed monomer fusion (pET32a); chain copies: 2; label: CyDye5-dUTP incorporated in the synthesized complementary strand; 3' TTTTT single-stranded linker to array surface; dsDNA, one strand shown.
T1 sequence: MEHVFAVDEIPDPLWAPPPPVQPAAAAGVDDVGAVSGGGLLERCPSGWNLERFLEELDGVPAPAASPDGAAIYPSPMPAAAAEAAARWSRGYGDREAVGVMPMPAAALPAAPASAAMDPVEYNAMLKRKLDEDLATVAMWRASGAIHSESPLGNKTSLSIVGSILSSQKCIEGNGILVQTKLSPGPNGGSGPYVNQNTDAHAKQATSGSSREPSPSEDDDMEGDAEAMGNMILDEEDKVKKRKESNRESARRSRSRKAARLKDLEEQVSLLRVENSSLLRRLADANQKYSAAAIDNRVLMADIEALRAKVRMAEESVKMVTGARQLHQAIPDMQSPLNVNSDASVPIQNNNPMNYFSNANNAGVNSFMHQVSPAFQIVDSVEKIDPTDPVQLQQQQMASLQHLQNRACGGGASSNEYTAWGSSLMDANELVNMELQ
Method in brief: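 In PBS with 2% BSA, salmon testes DNA and 50 µM zinc acetate, 200 nM protein was incubated on a custom Agilent array at 25 °C for 1 h and then washed off. The array had been made double-stranded by primer extension with Cy5-dUTP and blocked with 2% BSA. The proteins were transcription factors fused N-terminally to polyhistidine and DsRed, expressed in E. coli BL21-CodonPlus and purified on Ni–NTA. The binding signal is per-feature fluorescence intensity (arbitrary units) from an Axon 4000B scanner.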
“AAACGCTCGAGGGCCTTCCGGCTAGCTCTATAAGGTGGTGCGGAGTCACCTAGTGCAG” was tested, and the binding signal was 28100 fluorescence intensity (a.u.). “CCAAGTGATGCCGTGACATCCCCACAGCCAGCAAACGATCCGGAGTCACCTAGTGCAG” was tested, and the binding signal was 3490 fluorescence intensity (a.u.). For “ATCTAACATTTGATTCTCGCTTGAATTGACTGACCCAAAACGGAGTCACCTAGTGCAG”, the binding signal was 3160 fluorescence intensity (a.u.). With “CGTGGGCTCTCGCTGGACGCTACTCCAGTCAACAGTGGTCCGGAGTCACCTAGTGCAG” the binding signal was 20100 fluorescence intensity (a.u.). In the case of “AGGGAGGAGGGGCGCACAGAGGAGATAGGCCACGTATGGACGGAGTCACCTAGTGCAG”, the binding signal was 5320 fluorescence intensity (a.u.). In the case of “TCTGGTATCTCTCTCTGGTAGCGGCGCCGACGTGCGGAGGCGGAGTCACCTAGTGCAG”, the binding signal was 36400 fluorescence intensity (a.u.). For “TAGCGTGCATTGTAGTTACACACTTACATGTATCGTTATGCGGAGTCACCTAGTGCAG”, the binding signal was 3310 fluorescence intensity (a.u.). “CGCCGCCTCGTCACCGGCCGCTCCTTCCTCCGCCGCTACCCGGAGTCACCTAGTGCAG” was tested, and the binding signal was 5740 fluorescence intensity (a.u.). “CGCGCGCGCCCACGGGCGTCGGCGCGCGGAGGTCGCAGGGCGGAGTCACCTAGTGCAG” was tested, and the binding signal was 3720 fluorescence intensity (a.u.). For “CGCAAGGCTGACGAAATCACGATATGGCATGGTTGGTACGCGGAGTCACCTAGTGCAG”, the binding signal was 3760 fluorescence intensity (a.u.). For “AACCATTACTATTTGTCATGTCATGTATGCCAAACTTTTCCGGAGTCACCTAGTGCAG”, the binding signal was 4290 fluorescence intensity (a.u.). In the case of “GTTATAGTTACACCACGTAATCAACAAGACCGGCCTATGCCGGAGTCACCTAGTGCAG”, the binding signal was 7620 fluorescence intensity (a.u.). In the case of “GTCGCCTGATTGAGCGCTTCATGATCTTGACTTCTCAACTCGGAGTCACCTAGTGCAG”, the binding signal was 4560 fluorescence intensity (a.u.). For “AAAAGCCCGCGCGCAACGGACGTTTCTCCCGCGCTTTCCTCGGAGTCACCTAGTGCAG”, the binding signal was 3540 fluorescence intensity (a.u.). In the case of “GTCATGCGGACTGCACTGCGCTGACTCGTTCTTGCTCTTGCGGAGTCACCTAGTGCAG”, the binding signal was 5610 fluorescence intensity (a.u.). In the case of “GTCACATTCTCAGAGTACAAAGCTCACTGCTCACCACAGCCGGAGTCACCTAGTGCAG”, the binding signal was 3170 fluorescence intensity (a.u.). For “CAGCCACTGCTCCGCCCAGTCGTGTCATTCGCCCACTAGCCGGAGTCACCTAGTGCAG”, the binding signal was 4200 fluorescence intensity (a.u.). With “TAGGTCAAACTACCACGTAAGCGTCACGTCGATGCCACGTCGGAGTCACCTAGTGCAG” the binding signal was 23800 fluorescence intensity (a.u.). In the case of “TGTTTCTTCCGTTGTTGCAGCGTTGTGACGTGCATGCTTTCGGAGTCACCTAGTGCAG”, the binding signal was 7210 fluorescence intensity (a.u.). For “CCATGTAAGTGTCACGTCAATGCCACGTGAGACGAAGACCCGGAGTCACCTAGTGCAG”, the binding signal was 12500 fluorescence intensity (a.u.). For “GAGGATCTCGCCGCCGCTTCGCTCCACGTCCCACCGCCCTCGGAGTCACCTAGTGCAG”, the binding signal was 4790 fluorescence intensity (a.u.). In the case of “TCATTGGTATCTCAATGACATGTAGGACCTACATGAGTCACGGAGTCACCTAGTGCAG”, the binding signal was 8190 fluorescence intensity (a.u.). In the case of “TTTACAACCGTCAAGCGCTGACTTGTTCTTCGATCGTCTTCGGAGTCACCTAGTGCAG”, the binding signal was 3680 fluorescence intensity (a.u.). For “CACCGCAGGATTCCTCTCTTGGGTTGACGGCTGCCACAAGCGGAGTCACCTAGTGCAG”, the binding signal was 27500 fluorescence intensity (a.u.). For “TGAAACACAGTATATATTGATGAAGTTGCCACGTAGTCCTCGGAGTCACCTAGTGCAG”, the binding signal was 10900 fluorescence intensity (a.u.). In the case of “GAGCCTAGGTCTTCCGCCGCCGCCGCGCTCCACCGTTGCGCGGAGTCACCTAGTGCAG”, the binding signal was 3260 fluorescence intensity (a.u.). “TTTTAATGTTTGTATACATTTAGCGTGATCGGTGAAAATCCGGAGTCACCTAGTGCAG” was tested, and the binding signal was 17800 fluorescence intensity (a.u.). For “CTCCTCTCCTCCCTCCTCGACTTCTCCGCTTTCTCCGCCTCGGAGTCACCTAGTGCAG”, the binding signal was 3230 fluorescence intensity (a.u.). For “CAGGTTTGCTGTACACTTGTCGCGCCTTGAGGACGCAGTTCGGAGTCACCTAGTGCAG”, the binding signal was 3310 fluorescence intensity (a.u.). For “TTTCTACACACATAAACTTTCAACTTTTCCATCACATCGTCGGAGTCACCTAGTGCAG”, the binding signal was 9580 fluorescence intensity (a.u.). In the case of “TTTAAAGTATTAAATATAGACTAATAATAAAATAAATTGCCGGAGTCACCTAGTGCAG”, the binding signal was 16600 fluorescence intensity (a.u.). For “GCCCCAGCATCGTCCGCCCCGCCGTCGCCACTGCACCAGCCGGAGTCACCTAGTGCAG”, the binding signal was 3150 fluorescence intensity (a.u.). For “CTATATTAATTAATGAATTAGCAATTGGATGTACCAATTTCGGAGTCACCTAGTGCAG”, the binding signal was 41000 fluorescence intensity (a.u.). With “AGCAGCGGGCTACAGATTTATAGCCAGCTGTAGCACGGATCGGAGTCACCTAGTGCAG” the binding signal was 33200 fluorescence intensity (a.u.). In the case of “GGGAGGAAGAGGAATGAGCTATCTGTCAGCAGAGAACCTTCGGAGTCACCTAGTGCAG”, the binding signal was 3540 fluorescence intensity (a.u.). With “AATAGATTTTGAAGAGATGTGACACGTTACAGTACTACGACGGAGTCACCTAGTGCAG” the binding signal was 4980 fluorescence intensity (a.u.). “TGGCGTGACCAGATTGATGACATACTGGCCAAGATATGGTCGGAGTCACCTAGTGCAG” was tested, and the binding signal was 3740 fluorescence intensity (a.u.). For “AAATTAAATTGTTGACCGAAACCTAAGCTGGCATTTAATACGGAGTCACCTAGTGCAG”, the binding signal was 3820 fluorescence intensity (a.u.). In the case of “TTTTACTTTCAATAATTGCCATGACACCTACACCCGGAGGCGGAGTCACCTAGTGCAG”, the binding signal was 3860 fluorescence intensity (a.u.). For “CATGATTTATTTGATAAGCTAGGGGCGCCACGTGGCCCAACGGAGTCACCTAGTGCAG”, the binding signal was 19100 fluorescence intensity (a.u.). For “CGGCTGATCAGAGTGACGTCATTGGTGTTGGTGGTATTGACGGAGTCACCTAGTGCAG”, the binding signal was 11400 fluorescence intensity (a.u.). With “TTAATTTCTCTGCACACTCAAAACAGGGAGACACGTCAAACGGAGTCACCTAGTGCAG” the binding signal was 3980 fluorescence intensity (a.u.).
